# According to publication PMC8384837:
# Where a chain is given by its changes, count along the chain named. The list shows a part of the results. At the low end of the ranking, values are background and their order means little.
# Assays:
# Details in all cases: yeast three-hybrid, YBZ-1, SC-Leu-His + 0.5 mM 3-AT, 4 days
# [1] = target: T1, PUM1 PUF domain R5-DMR C1007D + R1008M + Q1011R (UniProt Q14671)
# T1 sequence: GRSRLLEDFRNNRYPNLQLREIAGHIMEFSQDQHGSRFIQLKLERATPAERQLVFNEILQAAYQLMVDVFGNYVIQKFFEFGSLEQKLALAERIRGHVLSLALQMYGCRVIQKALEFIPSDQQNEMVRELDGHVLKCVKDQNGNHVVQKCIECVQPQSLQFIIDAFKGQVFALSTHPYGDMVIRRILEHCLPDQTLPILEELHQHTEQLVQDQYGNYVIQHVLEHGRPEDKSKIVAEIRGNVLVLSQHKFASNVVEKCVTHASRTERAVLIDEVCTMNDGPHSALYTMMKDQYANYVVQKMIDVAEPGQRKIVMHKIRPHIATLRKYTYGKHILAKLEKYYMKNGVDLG
# [2] = target: T2, PUM1 PUF domain R5-DQR C1007D + R1008Q + Q1011R (UniProt Q14671)
# T2 sequence: T1 sequence with M181Q
# [3] = target: T3, PUM1 PUF domain R5-EAE C1007E + R1008A + Q1011E (UniProt Q14671)
# T3 sequence: T1 sequence with D180E, M181A, R184E
# [4] = target: T4, PUM1 PUF domain R5-GNW C1007G + R1008N + Q1011W (UniProt Q14671)
# T4 sequence: T1 sequence with D180G, M181N, R184W
# [5] = target: T5, PUM1 PUF domain R5-GVE C1007G + R1008V + Q1011E (UniProt Q14671)
# T5 sequence: T1 sequence with D180G, M181V, R184E
# [6] = target: T6, PUM1 PUF domain R5-HLY C1007H + R1008L + Q1011Y (UniProt Q14671)
# T6 sequence: T1 sequence with D180H, M181L, R184Y
# [7] = target: T7, PUM1 PUF domain R5-HNR C1007H + R1008N + Q1011R (UniProt Q14671)
# T7 sequence: T1 sequence with D180H, M181N
# [8] = target: T8, PUM1 PUF domain R5-KAD C1007K + R1008A + Q1011D (UniProt Q14671)
# T8 sequence: T1 sequence with D180K, M181A, R184D
# [9] = target: T9, PUM1 PUF domain R5-KDK C1007K + R1008D + Q1011K (UniProt Q14671)
# T9 sequence: T1 sequence with D180K, M181D, R184K
# [10] = target: T10, PUM1 PUF domain R5-KGD C1007K + R1008G + Q1011D (UniProt Q14671)
# T10 sequence: T1 sequence with D180K, M181G, R184D
# [11] = target: T11, PUM1 PUF domain R5-KKL C1007K + R1008K + Q1011L (UniProt Q14671)
# T11 sequence: T1 sequence with D180K, M181K, R184L
# [12] = target: T12, PUM1 PUF domain R5-KLH C1007K + R1008L + Q1011H (UniProt Q14671)
# T12 sequence: T1 sequence with D180K, M181L, R184H
# [13] = target: T13, PUM1 PUF domain R5-KLT C1007K + R1008L + Q1011T (UniProt Q14671)
# T13 sequence: T1 sequence with D180K, M181L, R184T
# [14] = target: T14, PUM1 PUF domain R5-KPV C1007K + R1008P + Q1011V (UniProt Q14671)
# T14 sequence: T1 sequence with D180K, M181P, R184V
# [15] = target: T15, PUM1 PUF domain R5-KQD C1007K + R1008Q + Q1011D (UniProt Q14671)
# T15 sequence: T1 sequence with D180K, M181Q, R184D
# [16] = target: T16, PUM1 PUF domain R5-KQV C1007K + R1008Q + Q1011V (UniProt Q14671)
# T16 sequence: T1 sequence with D180K, M181Q, R184V
# [17] = target: T17, PUM1 PUF domain R5-KSD C1007K + R1008S + Q1011D (UniProt Q14671)
# T17 sequence: T1 sequence with D180K, M181S, R184D
# [18] = target: T18, PUM1 PUF domain R5-KTL C1007K + R1008T + Q1011L (UniProt Q14671)
# T18 sequence: T1 sequence with D180K, M181T, R184L
# [19] = target: T19, PUM1 PUF domain R5-KTV C1007K + R1008T + Q1011V (UniProt Q14671)
# T19 sequence: T1 sequence with D180K, M181T, R184V
# [20] = target: T20, PUM1 PUF domain R5-NDG C1007N + R1008D + Q1011G (UniProt Q14671)
# T20 sequence: T1 sequence with D180N, M181D, R184G
sequence,measurement,setting,value
GGCUAGAACUAGUGGAUCCCCCGGCGCCCGGCGGCUCGAGCCCGGGUAAGUGUAAAUAGUCUGCAUGCCGCCGGGCGCCAUGCCUGCAGGUCGACUCUAGAAAACAUG,binding signal (log2 enrichment (interaction score)),[1],< -7.63
same,binding signal (log2 enrichment (interaction score)),[2],< -6.1
same,binding signal (log2 enrichment (interaction score)),[3],< -7.17
same,binding signal (log2 enrichment (interaction score)),[4],< -5.53
same,binding signal (log2 enrichment (interaction score)),[5],< -5.47
same,binding signal (log2 enrichment (interaction score)),[6],< -7.33
same,binding signal (log2 enrichment (interaction score)),[7],< -6.2
same,binding signal (log2 enrichment (interaction score)),[8],< -7.92
same,binding signal (log2 enrichment (interaction score)),[9],< -6.21
same,binding signal (log2 enrichment (interaction score)),[10],< -8.03
same,binding signal (log2 enrichment (interaction score)),[11],< -6.32
same,binding signal (log2 enrichment (interaction score)),[12],< -7.73
same,binding signal (log2 enrichment (interaction score)),[13],< -7.06
same,binding signal (log2 enrichment (interaction score)),[14],< -7.28
same,binding signal (log2 enrichment (interaction score)),[15],< -5.73
same,binding signal (log2 enrichment (interaction score)),[16],< -5.88
same,binding signal (log2 enrichment (interaction score)),[17],< -5.96
same,binding signal (log2 enrichment (interaction score)),[18],< -7.2
same,binding signal (log2 enrichment (interaction score)),[19],< -8.2
same,binding signal (log2 enrichment (interaction score)),[20],< -7.15

# 2 records picked at random from those above, as already listed:
sequence,measurement,setting,value
GGCUAGAACUAGUGGAUCCCCCGGCGCCCGGCGGCUCGAGCCCGGGUAAGUGUAAAUAGUCUGCAUGCCGCCGGGCGCCAUGCCUGCAGGUCGACUCUAGAAAACAUG,binding signal (log2 enrichment (interaction score)),[1],< -7.63
same,binding signal (log2 enrichment (interaction score)),[20],< -7.15
